# Measurements reported in PubChem BioAssay AID602196 (INSERM, 2012).
# Test: 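Modifiers of cisplatin sensitivity in A549 cells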
# System: human A549 lung cancer cells
# Reagent: siRNA pair against human genes
# Timing: 48 h transfection before cisplatin; time from cisplatin to read-out not stated
# Conditions: cisplatin at a dose killing half of control-siRNA cells; exact dose and duration not given
# Measured: 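Shift in cisplatin death relative to control siRNA, from -50 (all cells die) to +50 (no cells die); siRNAs harmful on their own scored 0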
# Reading the numbers: two-siRNA summed score (-2 to +2): higher = both siRNAs protect from cisplatin killing; -2 means both sensitise; mean protection from cisplatin (shift in death) and protection from cisplatin (shift in death), siRNA C and protection from cisplatin (shift in death), siRNA D: higher = protection from cisplatin killing
# Rule for the call: 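siRNAs harmful alone (LDH or WST-1) get 0; others get +1 for less and -1 for more cisplatin killing; genes are active when the two siRNAs give the same sign, summing to ±2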
# Meaning of the calls: active = both siRNAs shift cisplatin killing the same way; inactive = no consistent shift, or siRNA harmful alone
# The deposit covers about 23,000 reagents; shown is a part drawn at random. Of all reagents, 455 (2%) are marked active. 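Active includes both protection and sensitisation; some change values fall well beyond the stated -50 to +50 range.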 A number with no mark means an inactive call. The record does not give: the amount of reagent.
gene symbol,two-siRNA summed score (-2 to +2),mean protection from cisplatin (shift in death) (%),"protection from cisplatin (shift in death), siRNA C (%)","protection from cisplatin (shift in death), siRNA D (%)"
DEFB127 (GeneID 140850),1,9.5,16.7,2.4
ACCS (GeneID 84680),0,-4.6,-11.1,1.9
OXSM (GeneID 54995),0,-3.6,-10.8,3.6
CHD6 (GeneID 84181),0,2.4,0.4,4.5
IFITM3P2 (GeneID 144383),0,8.5,11.3,5.8
KIF11 (GeneID 3832),0,22.1,27.3,16.9
PSMD9 (GeneID 5715),0,-3.3,0.8,-7.5
CRADD (GeneID 8738),0,-2.6,-9.2,4
ZNF157 (GeneID 7712),0,6.1,9.1,3.2
ATP6V1G1 (GeneID 9550),0,6.3,4.8,7.9
NAXE (GeneID 128240),0,-1.1,-0.9,-1.2
SELENOV (GeneID 348303),0,25.5,31.8,19.2
COMT (GeneID 1312),0,21.5,-1.5,44.4
ERLEC1 (GeneID 27248),0,6.4,10.1,2.6
LOC440574,0,14.2,13.1,15.2
FOSL1 (GeneID 8061),-1,-5.9,-13.8,1.9
LOC440360,1,27.5,33.2,21.9
APBB1IP (GeneID 54518),0,1.6,15.4,-12.2
OR2AK2 (GeneID 391191),0,-7.7,-3.7,-11.8
FLJ38144,0,8.4,8.4,8.4
LOC130839,0,10.9,15.7,6
PLEKHG6 (GeneID 55200),0,-5.1,-6.6,-3.6
CCDC51 (GeneID 79714),0,3.1,3.8,2.5
